In article PMC7819943, “Rice protein-binding microarrays: a tool to detect cis-acting elements near promoter regions in rice” one finds binding signal data, which are given here for 42 sequences.

Sequences of proteins named here, by UniProt entry; tags and fusion partners are left off.
UniProt Q0JBA9, entry or part of it: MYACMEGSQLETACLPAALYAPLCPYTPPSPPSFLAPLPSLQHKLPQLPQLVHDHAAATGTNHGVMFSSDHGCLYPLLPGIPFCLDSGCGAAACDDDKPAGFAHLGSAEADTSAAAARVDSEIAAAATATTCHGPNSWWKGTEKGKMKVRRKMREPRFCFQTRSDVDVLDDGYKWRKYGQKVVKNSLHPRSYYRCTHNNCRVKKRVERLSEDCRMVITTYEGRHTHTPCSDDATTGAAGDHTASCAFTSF

Some of the results follow.

The experiment concerns the target OsWRKY34 (Oryza sativa, UniProt Q0JBA9 1-250). Nature of the experiment: protein-binding microarray (RPBM); PBS, 2% BSA, 51.3 ng/ul salmon testes DNA, 50 uM zinc acetate, 200 nM TF, 25 C, 1 h; high values mean tight binding. The conditions noted are these: protein: recombinant; tags: N-terminal polyhistidine and DsRed monomer fusion (pET32a); label: CyDye5-dUTP incorporated in the synthesized complementary strand; 3' TTTTT single-stranded linker to array surface; dsDNA, one strand shown. An outline of the steps: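 Using Ni–NTA, transcription factors fused N-terminally to polyhistidine and DsRed were purified after expression in E. coli BL21-CodonPlus. These were incubated at 200 nM with a blocked, double-stranded custom Agilent array for 1 h at 25 °C in a buffer containing 50 µM zinc acetate, and the array was washed. The binding signal is per-feature fluorescence intensity (arbitrary units) on an Axon 4000B scanner.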
As for “CTTTCAGTTACGGGCCCCACCTGTCATTCTCTCACCTCTCCGGAGTCACCTAGTGCAG”, the binding signal was 8750 fluorescence intensity (a.u.). On to “ATCTCACCCATCTTAACCTCTCCACCTGCAACTTCGCTGGCGGAGTCACCTAGTGCAG”, for which the binding signal was 8080 fluorescence intensity (a.u.). As for “AGTGGTCTATATGTCATTGCACCTGTATGCCAAGCCAGAACGGAGTCACCTAGTGCAG”, the figure is 8410 fluorescence intensity (a.u.). As to “AGGTTCGACCCCATGTACTATGAATCGACATTTATTTGAGCGGAGTCACCTAGTGCAG”, the binding signal was 8640 fluorescence intensity (a.u.). For “CTTCCTCTCTCTCTTCGTCAACACCACTCACTAGCTACTGCGGAGTCACCTAGTGCAG”, the binding signal was 8270 fluorescence intensity (a.u.). As for “ATGTGTTTTCACTCGAGATTTTGGTCCACGTGCTTTTCTGCGGAGTCACCTAGTGCAG”, the binding signal was 10200 fluorescence intensity (a.u.). For “TTTTGGGCATGTGAGATCTTTTCAAAAGTTTACTTTTAATCGGAGTCACCTAGTGCAG”, the binding signal is 8480 fluorescence intensity (a.u.). In the case of “CCTTCATTCTCTCTCTCTCTTCTTTCTCTCTCCTCCTTCCCGGAGTCACCTAGTGCAG” it was 8060 fluorescence intensity (a.u.).

“TGCTGCTTTGCTCAATTGCTCTTTGATATTGTTGTTTGTACGGAGTCACCTAGTGCAG”: the binding signal was 8150 fluorescence intensity (a.u.). “CCTCGCCGGTCGCCTCTCTCATCTCCGCACTCTCCGATCTCGGAGTCACCTAGTGCAG”: the binding signal is 8360 fluorescence intensity (a.u.). In the case of “CTGCCCTGCTCCACTCCGTCGGCCGCCGTCCTCGCCATCTCGGAGTCACCTAGTGCAG”, the binding signal was 11800 fluorescence intensity (a.u.). On to “CCCAGCCCACTCGACACCCACCGAATCCACGCCGCTCAATCGGAGTCACCTAGTGCAG”, for which the binding signal was 8600 fluorescence intensity (a.u.). With “CGGTTTTGTGGTTTAGGGCCATGAATTAGATTTCAGTCACCGGAGTCACCTAGTGCAG”, the binding signal is 9860 fluorescence intensity (a.u.). In the case of “TAATGTACCTTAGCTTGCTCTATTTTACTTTATTTTTAACCGGAGTCACCTAGTGCAG” it was 8070 fluorescence intensity (a.u.); in that of “TCAGCCCGCGGCCGTCCTTCTTCTTCCCCACCGCCGCGGCCGGAGTCACCTAGTGCAG”, 8290 fluorescence intensity (a.u.); in that of “GCTTTTCTTGTATTCCATCCCACGTAGTTTTCCTGTATTTCGGAGTCACCTAGTGCAG”, 12200 fluorescence intensity (a.u.).

For the sequence “TGGTTTGTTCCCGTCGGATTTTTCTTTTCCACTGTTCGATCGGAGTCACCTAGTGCAG”, the binding signal was 13000 fluorescence intensity (a.u.).

Take “CGTGACTTAGGTTTTAAAACTTTTTCATAAATTTTTCTGTCGGAGTCACCTAGTGCAG”: the binding signal was 9410 fluorescence intensity (a.u.). Consider “GTTTCTATTCACAACGTACACTGTATTGCCCCTATGACATCGGAGTCACCTAGTGCAG”, for which the binding signal is 8550 fluorescence intensity (a.u.). In the case of “TCCCTCCGTTTCAGGTTACAAGACGTTTTGACTTTGATGACGGAGTCACCTAGTGCAG” it was 8900 fluorescence intensity (a.u.); in that of “TTCTTATTTATCTTCTTGATATGTGCTTACGGTTGACTTACGGAGTCACCTAGTGCAG”, 11100 fluorescence intensity (a.u.); in that of “CCTCCGTTTCACAATATAAGTCGTTCTAGCATCAATATGACGGAGTCACCTAGTGCAG”, 8580 fluorescence intensity (a.u.).

“CCCCATCGCCGAATCCGCCGCCGCCATCCCCACCACGGGACGGAGTCACCTAGTGCAG”: the binding signal was 8070 fluorescence intensity (a.u.). Consider “CCACCTCGCACCGTCGATCTCCTCCCCACCCGTCGGCCGGCGGAGTCACCTAGTGCAG”, for which the binding signal is 8520 fluorescence intensity (a.u.). On to “ACATCTTATCTTCTTCTTCTTCTTCTTCTTCTTCTTCTTCCGGAGTCACCTAGTGCAG”, for which the binding signal is 9650 fluorescence intensity (a.u.). In the case of “TCGAGGAGTGGATGGACGGATGGGTGGGTCATCACTGGTCCGGAGTCACCTAGTGCAG”, the binding signal is 8840 fluorescence intensity (a.u.). As for “GTACTATTTGGCTCAACTGCAACTGCACGTACTATATTCACGGAGTCACCTAGTGCAG”, the binding signal was 15200 fluorescence intensity (a.u.). In the case of “ACCACCAAACTAGTCTTGTTCTCTCCTCTCTCTCTCTCTCCGGAGTCACCTAGTGCAG”, the binding signal is 8580 fluorescence intensity (a.u.). In the case of “GGATTCAACTACGATTCCACGACTTGTTATATTCAACTACCGGAGTCACCTAGTGCAG”, the binding signal is 8110 fluorescence intensity (a.u.).

“ACGTTGCTCGCTGCGTCGCTGTCCCGTTTCGACGGTTTTTCGGAGTCACCTAGTGCAG”: the binding signal is 10200 fluorescence intensity (a.u.). As for “ACAGCCTATTTATGTACTTGAATTCCTGCAGACTGTCCAACGGAGTCACCTAGTGCAG”, the figure is 8380 fluorescence intensity (a.u.); as for “ACGTAATTAAGAGTGAATTAATTCTACATGTATCTATCAACGGAGTCACCTAGTGCAG”, 8710 fluorescence intensity (a.u.). For “TGCTCTCTCTCTCTCTCTCTCTCTCTCGGCACCACGGACACGGAGTCACCTAGTGCAG”, the binding signal was 11700 fluorescence intensity (a.u.). Regarding “AAACTATTTTTCTCCTCTTTTACATGCCGGTGATTTAGAACGGAGTCACCTAGTGCAG”, the binding signal was 8630 fluorescence intensity (a.u.).

In the case of “AAGGCCCCAAATTATTCGCTCATACATATTCCTGTTCAAACGGAGTCACCTAGTGCAG”, the binding signal is 8390 fluorescence intensity (a.u.).

Take “ATTCTGTATTTATTGTTTGCTGCATTCAGTTTGATTGGTTCGGAGTCACCTAGTGCAG”: the binding signal was 13900 fluorescence intensity (a.u.). Consider “CTTGATTTTTTTCTTCTTCTGTTTTTGTTCTTGATTGATTCGGAGTCACCTAGTGCAG”, for which the binding signal is 14200 fluorescence intensity (a.u.). As for “GTCTTTTCACCCCATGAGCTCCTTTGAATCCCATGAATTTCGGAGTCACCTAGTGCAG”, the figure is 9830 fluorescence intensity (a.u.); as for “ATACCATTCTACCATAGTTCCAGATTTTTCTGCTCACAAACGGAGTCACCTAGTGCAG”, 8720 fluorescence intensity (a.u.); as for “TATACACCGGTTTATCATTACACCATATTTCCTCCGTCCTCGGAGTCACCTAGTGCAG”, 8840 fluorescence intensity (a.u.). Take “CTCTCCTTTTTTTTGGCCGTTGGTTGGGTAATTGAACGGCCGGAGTCACCTAGTGCAG”: the binding signal is 8330 fluorescence intensity (a.u.). With “TCACTTTTCAACCAATCCCAATCTTTCACCATTTAATTATCGGAGTCACCTAGTGCAG”, the binding signal was 8420 fluorescence intensity (a.u.).
